Assay: general procedure: peptide synthesis; succinimidyl carbamate building blocks (Boc-protected in solution); azide-protect
Conditions: coupling step

Row | Substance | step yield [%]
1 | Boc Leu-Lys(2ClZ)^u-Leu-Lys(2ClZ)^u-Pro^u-N3 | 65
2 | Boc Lys(2ClZ)^u-Leu-Lys(2ClZ)^u-Pro^u-N3 | 68
3 | Boc-Glu(OBn)^u-Leu^u-Lys(2ClZ)^u-Ala^u-NHMe | 48
4 | Boc-Leu^u-Glu(OBn)^u-Leu^u-Lys(2ClZ)^u-Pro^u-Leu^u-Glu(OBn)^u-Leu^u-Lys(2ClZ)^u-Ala^u-NHMe | 56
5 | Boc-Leu^u-Glu(OBz)^u-Leu^u-Lys(2ClZ)^u-Ala^u-NHMe | 67
